60 molecules from PubChem BioAssay AID493014 (National Center for Advancing Translational Sciences (NCATS), 2011) can be followed below.

Structures are written as SMILES. The list shows a part of the results. Further columns of the screen follow, without active or inactive calls. Most of these compounds were active or inconclusive in the main read-out, so they are no random draw. Potencies come from curve fits of mixed quality, noted in brackets.

The assay is described as follows: qHTS Assay to Find Inhibitors of Chronic Active B-Cell Receptor Signaling. The conditions noted are these: ABC-DLBCL IkBa-CBG/CBR reporter, luminescence ratio (green luciferase fused to IkBa over red control in TMD8 lymphoma cells), 4 h. The gist of the method: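 Cell line TMD8 (human ABC DLBCL), stably expressing tet-inducible CBG68-IkBa fusion and CBR; IMDM/0.5% FBS; cpd up to 46 uM; dox induction, 4 h, 37C/5% CO2; dual luminescence; green/red ratio; MG132 control.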
In general terms: Quantitative high-throughput screening tests each substance at several concentrations.

The mark [1] stands for this setting: measured here: CBR red luminescence, cell number.
Where [2] appears, read: measured here: IkBa-CBG green luminescence.

By AC50 is commonly meant the concentration at which the activity in the assay is half-maximal. As to `CCOC(=O)c1ccc(NC(=O)c2c(NCc3cccs3)sc3c2CCCCC3)cc1`, the AC50 under setting [1] was 20 µM [falling, single point]. Regarding `CCN(C(=O)COC(=O)c1ccccc1NCCO)C1CCS(=O)(=O)C1` (configuration not stated), the AC50 under setting [1] is 23.1 µM [falling, partial curve]. As to `CCOC(=O)[C@H]1[C@H]2COc3ccc(Br)cc3[C@@H]2N2C(=O)CN(Cc3ccco3)C(=O)[C@@]12C`, the half-maximal activity concentration (AC50) runs as follows: under setting [1], 5.17 µM [falling, partial curve]; under setting [2], 5.8 µM [rising, partial curve, poor fit]. As for `Oc1ccc(-c2nc3ccccc3nc2-c2ccccc2)cc1`, the AC50 under setting [1] is 3.98 µM [falling, partial curve, poor fit].

`Cc1c(NC(=O)COC(=O)Cn2cc(C(F)(F)F)ccc2=O)cccc1[N+](=O)[O-]`: under setting [1], the AC50 was 11.6 µM [rising, partial curve, poor fit]. On to `Oc1ccc(-c2csc(Nc3ncccn3)n2)cc1O`, for which the half-maximal activity concentration (AC50) under setting [1] is 12.6 µM [falling, partial curve, poor fit].

Regarding `O=C(Cc1ccc(F)cc1)NCC1CCCO1` (configuration not stated), the concentration at half-maximal activity (AC50) under setting [1] is 35.5 µM [falling, single point]. In the case of `O=C(NC(=S)Nc1ccc(Cl)cn1)c1cccs1`, the AC50 under setting [1] is 8.91 µM [falling, partial curve, poor fit]. Same read-out and setting: under `CC(=O)c1sc(-c2ccc(F)cc2)cc1NS(=O)(=O)c1ccc(C)cc1` stands 7.08 µM [rising, partial curve]. In the case of `O=S(=O)(N1CCCCC1)N1CCN(c2ccc(F)cc2)CC1`, the AC50 under setting [1] was 29.1 µM [rising, single point]. On to `COc1cc2c(cc1OC)CN(C(=O)COc1ccccc1[N+](=O)[O-])CC2`, for which the AC50 under setting [1] was 2.82 µM [falling, full curve]. In the case of `CCSc1nnc(NC(=O)c2ccccn2)s1`, the concentration at half-maximal activity (AC50) runs as follows: under setting [1], 16.4 µM [falling, partial curve, poor fit]; under setting [2], 29.1 µM [falling, single point]. For the molecule `O=C(Oc1ccccc1C(=O)Oc1ccccc1)c1cccnc1`, the AC50 is 35.5 µM [rising, single point] under setting [1] and 35.5 µM [falling, single point] under setting [2].

For `C#CCOCCOCCOCCNc1nc(N2CCN(C(=O)CCCCCCCCCCNC(=O)[C@H]([C@@H](C)CC)n3cc(CCCCN=C(N)N)nn3)CC2)nc(N2CCN(C(=O)CCCCCCCCCCNC(=O)[C@H](CO)n3cc(CCCSC)nn3)CC2)n1`, the AC50 is, setting by setting: under setting [1], 4.61 µM [rising, partial curve]; under setting [2], 5.17 µM [falling, single point]. `Cn1c(=O)oc2cc(S(=O)(=O)NCc3ccncc3)ccc21`: the concentration at half-maximal activity (AC50) under setting [1] was 11.2 µM [falling, partial curve, poor fit]. As for `O=C(COc1ccc(Cl)cc1)Nc1ncc([N+](=O)[O-])s1`, under setting [1], the concentration at half-maximal activity (AC50) was 0.126 µM [falling, full curve, poor fit]. With `Cn1c(=O)c2c(nc(Cc3ccccc3)n2C)n(C)c1=O`, under setting [1], the half-maximal activity concentration (AC50) was 1 µM [falling, partial curve, poor fit]. For `COc1nc(N2CCCCCC2)nc(N2CCCCCC2)n1`, the half-maximal activity concentration (AC50) is, setting by setting: under setting [1], 20.6 µM [rising, partial curve, poor fit]; under setting [2], 20.6 µM [falling, single point]. Consider `Cc1noc(C)c1CSCC(=O)OCc1nnc(-c2ccc([N+](=O)[O-])cc2)o1`, for which the half-maximal activity concentration (AC50) under setting [1] is 29.1 µM [rising, single point]. With `Cc1ncc([N+](=O)[O-])n1CCOC(=O)NC(NCc1ccccc1)C(Cl)(Cl)Cl` (configuration not stated), the half-maximal activity concentration (AC50) under setting [1] was 3.98 µM [falling, partial curve, poor fit].

Take `COC(=O)C1=C(C)N(Cc2ccccc2)C(=NCC(C)C)N[C@H]1c1ccccc1`: the AC50 under setting [1] is 10 µM [falling, partial curve]. The same measure, in the same setting: under `C/C(N)=C(/C#N)C(=O)COC(=O)c1ccc(C)c(S(=O)(=O)N2CCCCC2)c1` stands 14.6 µM [falling, partial curve, poor fit]; under `CCCOc1cccc(-c2cc(C(=O)N/N=C/c3ccccn3)c3ccccc3n2)c1`, 2.51 µM [rising, full curve, poor fit]. The same measure, in the same setting: as for `CCOc1ccccc1OCCCC(=O)Nc1ccc(OC)nc1`, the figure is 2.31 µM [rising, partial curve]; as for `CC(Sc1nnc(COc2ccc([N+](=O)[O-])cc2)n1-c1ccccc1)C(=O)O` (configuration not stated), 35.5 µM [falling, single point]. Regarding `COc1ccc(C(=O)NCCc2nnc(SCC(=O)Nc3ccccc3)n2C)cc1`, under setting [1], the AC50 was 0.326 µM [falling, partial curve, poor fit]. On the same count and under the same terms, as for `c1ccc(N2CCN(Cc3nc4ccccc4[nH]3)CC2)nc1`, the figure is 5.62 µM [falling, single point]; as for `Cc1cc(C)cc(NC(=O)C2CCN(S(=O)(=O)c3ccc4c(c3)NC(=O)C(C)S4)CC2)c1` (configuration not stated), 14.1 µM [falling, single point]. Consider `CC1=C(C(=O)Nc2ccc([N+](=O)[O-])cc2)C(c2cccc(C(F)(F)F)c2)NC(=S)N1c1ccccc1` (configuration not stated), for which the half-maximal activity concentration (AC50) under setting [1] is 25.9 µM [falling, single point].

`Cc1ccc(-c2nn3c(C)nnc3c3ccccc23)cc1S(=O)(=O)N1CCN(CCO)CC1`: the concentration at half-maximal activity (AC50) under setting [1] was 12.6 µM [rising, partial curve, poor fit].

Consider `Cc1ccc(N=C/C(C(=O)C(F)(F)F)=C(\O)c2ccco2)cc1Cl`, for which the AC50 under setting [1] is 1.84 µM [rising, partial curve]. Still for that read-out and setting: as for `CN(CC(=O)Nc1ccccc1Br)C(=O)CCCSc1nc2ccccc2[nH]1`, the figure is 13 µM [rising, partial curve, poor fit]; as for `O=C1c2ccccc2C(=O)c2[nH]cnc21`, 7.08 µM [falling, partial curve]; as for `CC(C)Cn1c(=O)c(CCC(=O)Nc2ccc(N3CCOCC3)cc2)nc2cc(Cl)ccc21`, 1.26 µM [rising, full curve, poor fit].

Turning to `Cc1ccnc(NC(=O)c2ccc(Cl)s2)c1`, the AC50 under setting [1] was 28.2 µM [falling, single point]. For the molecule `Cc1ccc2nc(N3CCCCC3)c(C=O)c(=O)n2c1`, under setting [1], the AC50 was 12.6 µM [rising, single point].

As for `COC(=O)c1ccc(CSc2nc(C(F)(F)F)c3c(c2C#N)CCC3)o1`, the concentration at half-maximal activity (AC50) under setting [2] is 12.6 µM [rising, partial curve, poor fit]. With `O=C(c1cc(-c2ccc(O)cc2)on1)N1CCc2ccccc2C1`, the half-maximal activity concentration (AC50) under setting [1] is 22.4 µM [falling, partial curve, poor fit]. `O=C(NNC(=O)C1C2CCC(C2)C1C(=O)O)c1ccc(Cl)cc1` (configuration not stated): under setting [1], the AC50 was 10 µM [falling, partial curve]. Take `O=C(NCCn1cc(SCc2ccc(F)cc2)c2ccccc21)c1c(F)cccc1F`: the half-maximal activity concentration (AC50) under setting [1] was 29.1 µM [falling, single point]. Still for that read-out and setting: under `COC(=O)C1C(c2ccccc2)C(C(=O)OCc2ccco2)C1c1ccccc1` (configuration not stated) stands 6.51 µM [falling, full curve]. Turning to `CC(OC(=O)CCCSc1nc2ccccc2s1)C(=O)NC(N)=O` (configuration not stated), the AC50 under setting [1] was 10 µM [falling, partial curve].

As for `O=C(CNc1cccc(F)c1)Nc1cccc(S(=O)(=O)N2CCCCC2)c1`, the half-maximal activity concentration (AC50) under setting [1] was 6.51 µM [rising, partial curve, poor fit].

Regarding `Cc1ccc(Nc2nc(N)nc(CSc3ncccn3)n2)cc1`, the concentration at half-maximal activity (AC50) under setting [1] was 16.4 µM [falling, partial curve]. Consider `Cc1cc(C(=O)NCCc2ccc(Cl)cc2)c(C)o1`, for which, under setting [1], the AC50 is 14.1 µM [falling, single point]. With `O=C(NCCS(=O)(=O)N1CCN(c2ccc(F)cc2)CC1)C12CC3CC(CC(C3)C1)C2`, the AC50 under setting [1] was 5.8 µM [rising, partial curve, poor fit]. For `CCN(CCCNC(=O)C1CCN(S(=O)(=O)c2cnc[nH]2)CC1)c1ccccc1`, the AC50 under setting [1] is 10.3 µM [falling, single point]. Same read-out and setting: as for `COc1ccccc1-n1cc(-c2ccc(Br)cc2)[nH]c1=S`, the figure is 8.91 µM [falling, partial curve, poor fit]; as for `CC1CCN(C2=NC(=O)/C(=C/c3cccc(O)c3)S2)CC1`, 35.5 µM [falling, single point]. With `Nc1nc(N)nc(-c2ccc(Cl)c(Cl)c2)n1`, the concentration at half-maximal activity (AC50) under setting [1] was 29.1 µM [falling, single point] and the AC50 under setting [2] was 20.6 µM [rising, partial curve, poor fit]. With `Cc1cc(Oc2ccc(Cl)cc2)nc(-c2ccccc2O)n1`, under setting [1], the AC50 is 1.84 µM [rising, full curve, poor fit].

Take `O=C(CN(C(=O)CCC(=O)Nc1ccccn1)c1ccc(F)cc1)NCc1ccco1`: the half-maximal activity concentration (AC50) under setting [1] was 8.91 µM [falling, partial curve]. For the molecule `CCOC(=O)C1CCCN(C(=O)c2cn(CC)c3ccc(S(=O)(=O)N(C)C)cc3c2=O)C1` (configuration not stated), under setting [1], the concentration at half-maximal activity (AC50) was 0.103 µM [falling, full curve, poor fit]. As to `Cc1c(/C=C/C(=O)c2ccc(O)cc2)cnn1C`, under setting [1], the AC50 is 20.6 µM [falling, single point]. Same read-out and setting: under `CN(C)c1ccc(N=Cc2cccn2C)cc1` stands 4.47 µM [falling, full curve]. Consider `COc1cc(NC(=O)c2ccc(CNc3c(N4CCCC4)c(=O)c3=O)cc2)cc(OC)c1OC`, for which, under setting [1], the AC50 was 3.98 µM [rising, single point]. On to `COc1ccccc1C(=O)Nc1c(C(=O)N(CCN(C)C)Cc2ccco2)oc2ccccc12`, for which, under setting [1], the AC50 was 15.8 µM [falling, single point]. `O=C1CC(c2ccncc2)c2cc3c(cc2N1)OCO3` (configuration not stated): the half-maximal activity concentration (AC50) under setting [1] is 29.1 µM [falling, single point]. As to `Cc1c(OC(C)C(=O)O)ccc2c(-c3ccccc3)cc(=O)oc12` (configuration not stated), the half-maximal activity concentration (AC50) under setting [1] is 8.91 µM [rising, partial curve, poor fit]. Consider `COc1ccnc(CSC(N)=Nc2cccc(C(F)(F)F)c2)c1`, for which the half-maximal activity concentration (AC50) by setting is: under setting [1], 20.6 µM [falling, partial curve]; under setting [2], 16.4 µM [falling, partial curve, poor fit].
